Test results as given in the supplement of paper PMC10849652.
Some of the results follow.

Amino acid sequences for entries named in this document (tags omitted). A change or cut given only in a name is not applied to a line headed by its entry.
UniProt O14641: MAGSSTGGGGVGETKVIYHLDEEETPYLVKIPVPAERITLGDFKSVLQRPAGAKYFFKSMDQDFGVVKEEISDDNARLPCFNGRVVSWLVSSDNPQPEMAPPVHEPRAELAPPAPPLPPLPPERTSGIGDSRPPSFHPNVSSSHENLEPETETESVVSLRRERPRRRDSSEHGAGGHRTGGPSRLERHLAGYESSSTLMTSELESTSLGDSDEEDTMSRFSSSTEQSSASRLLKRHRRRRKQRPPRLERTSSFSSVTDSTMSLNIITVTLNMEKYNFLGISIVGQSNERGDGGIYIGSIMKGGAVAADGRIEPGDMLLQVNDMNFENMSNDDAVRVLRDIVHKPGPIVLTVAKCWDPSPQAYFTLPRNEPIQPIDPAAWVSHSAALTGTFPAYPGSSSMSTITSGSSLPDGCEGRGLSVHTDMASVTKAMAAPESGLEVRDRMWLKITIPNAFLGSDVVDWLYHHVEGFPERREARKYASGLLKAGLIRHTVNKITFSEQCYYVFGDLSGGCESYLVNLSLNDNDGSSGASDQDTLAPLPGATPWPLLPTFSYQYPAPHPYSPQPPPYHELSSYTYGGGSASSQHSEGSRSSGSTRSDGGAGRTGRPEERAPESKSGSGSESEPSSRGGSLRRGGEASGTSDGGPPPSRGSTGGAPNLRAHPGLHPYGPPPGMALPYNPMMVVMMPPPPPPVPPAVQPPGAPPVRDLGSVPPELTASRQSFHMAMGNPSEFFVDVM
UniProt Q9H3Z4: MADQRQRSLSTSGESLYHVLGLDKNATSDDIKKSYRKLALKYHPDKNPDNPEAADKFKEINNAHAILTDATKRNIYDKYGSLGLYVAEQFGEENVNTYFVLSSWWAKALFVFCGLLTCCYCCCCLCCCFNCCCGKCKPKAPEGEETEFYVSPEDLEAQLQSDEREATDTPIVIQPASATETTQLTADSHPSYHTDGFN
UniProt Q96FX2: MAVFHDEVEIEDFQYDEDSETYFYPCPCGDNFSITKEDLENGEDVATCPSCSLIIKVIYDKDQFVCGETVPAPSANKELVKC
UniProt Q9NVM6: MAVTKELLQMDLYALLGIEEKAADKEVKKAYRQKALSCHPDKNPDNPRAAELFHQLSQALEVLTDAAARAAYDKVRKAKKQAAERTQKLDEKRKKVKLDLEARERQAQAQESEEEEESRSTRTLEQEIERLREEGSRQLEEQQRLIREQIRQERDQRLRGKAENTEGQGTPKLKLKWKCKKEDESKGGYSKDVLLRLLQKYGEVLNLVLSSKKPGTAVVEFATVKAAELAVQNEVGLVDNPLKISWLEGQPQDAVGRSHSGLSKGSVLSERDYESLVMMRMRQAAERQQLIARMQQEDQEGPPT
UniProt O75937: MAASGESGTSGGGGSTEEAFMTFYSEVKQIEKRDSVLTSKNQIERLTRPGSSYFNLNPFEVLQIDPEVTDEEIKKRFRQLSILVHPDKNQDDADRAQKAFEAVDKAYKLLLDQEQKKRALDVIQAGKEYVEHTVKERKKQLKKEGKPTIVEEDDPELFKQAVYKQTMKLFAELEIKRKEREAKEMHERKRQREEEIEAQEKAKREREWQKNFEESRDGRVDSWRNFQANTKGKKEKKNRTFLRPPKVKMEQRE
UniProt Q9NTX5: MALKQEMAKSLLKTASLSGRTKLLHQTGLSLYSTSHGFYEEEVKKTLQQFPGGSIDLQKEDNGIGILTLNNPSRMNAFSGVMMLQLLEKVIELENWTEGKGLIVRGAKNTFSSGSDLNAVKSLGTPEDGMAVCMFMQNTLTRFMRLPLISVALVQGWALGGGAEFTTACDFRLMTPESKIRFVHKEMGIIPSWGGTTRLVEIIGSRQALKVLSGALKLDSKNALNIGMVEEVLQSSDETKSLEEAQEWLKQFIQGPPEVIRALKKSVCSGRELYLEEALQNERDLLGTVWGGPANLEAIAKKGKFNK
UniProt O75521: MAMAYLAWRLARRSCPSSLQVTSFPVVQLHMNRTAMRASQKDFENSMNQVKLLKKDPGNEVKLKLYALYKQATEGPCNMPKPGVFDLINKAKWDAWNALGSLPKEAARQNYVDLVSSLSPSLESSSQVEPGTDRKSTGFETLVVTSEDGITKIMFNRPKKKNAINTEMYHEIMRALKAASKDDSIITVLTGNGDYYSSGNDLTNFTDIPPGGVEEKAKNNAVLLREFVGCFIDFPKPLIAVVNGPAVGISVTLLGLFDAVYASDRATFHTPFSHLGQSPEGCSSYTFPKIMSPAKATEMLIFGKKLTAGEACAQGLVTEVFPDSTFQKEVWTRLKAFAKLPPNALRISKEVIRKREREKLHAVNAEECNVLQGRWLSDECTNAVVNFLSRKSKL
UniProt P55039: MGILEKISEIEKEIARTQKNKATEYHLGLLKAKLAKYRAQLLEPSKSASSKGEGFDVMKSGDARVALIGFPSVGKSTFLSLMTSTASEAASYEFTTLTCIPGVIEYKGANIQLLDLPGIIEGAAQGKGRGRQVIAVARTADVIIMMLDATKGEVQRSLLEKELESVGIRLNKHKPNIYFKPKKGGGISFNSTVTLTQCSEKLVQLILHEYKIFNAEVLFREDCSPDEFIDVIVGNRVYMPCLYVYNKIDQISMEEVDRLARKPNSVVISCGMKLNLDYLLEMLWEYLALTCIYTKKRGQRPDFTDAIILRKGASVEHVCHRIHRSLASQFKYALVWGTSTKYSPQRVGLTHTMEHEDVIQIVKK
UniProt Q9H3H5: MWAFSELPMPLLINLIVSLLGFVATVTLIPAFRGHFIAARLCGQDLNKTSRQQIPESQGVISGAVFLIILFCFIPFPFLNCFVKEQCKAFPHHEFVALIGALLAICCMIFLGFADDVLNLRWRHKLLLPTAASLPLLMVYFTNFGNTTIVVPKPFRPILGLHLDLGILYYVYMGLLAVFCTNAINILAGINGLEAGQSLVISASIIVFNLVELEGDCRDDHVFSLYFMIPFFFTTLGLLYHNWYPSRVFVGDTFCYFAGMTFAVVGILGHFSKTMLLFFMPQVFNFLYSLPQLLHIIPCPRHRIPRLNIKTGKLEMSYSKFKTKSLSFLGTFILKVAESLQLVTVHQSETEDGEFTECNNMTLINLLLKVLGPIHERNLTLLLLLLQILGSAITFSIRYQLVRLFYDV
UniProt O95905: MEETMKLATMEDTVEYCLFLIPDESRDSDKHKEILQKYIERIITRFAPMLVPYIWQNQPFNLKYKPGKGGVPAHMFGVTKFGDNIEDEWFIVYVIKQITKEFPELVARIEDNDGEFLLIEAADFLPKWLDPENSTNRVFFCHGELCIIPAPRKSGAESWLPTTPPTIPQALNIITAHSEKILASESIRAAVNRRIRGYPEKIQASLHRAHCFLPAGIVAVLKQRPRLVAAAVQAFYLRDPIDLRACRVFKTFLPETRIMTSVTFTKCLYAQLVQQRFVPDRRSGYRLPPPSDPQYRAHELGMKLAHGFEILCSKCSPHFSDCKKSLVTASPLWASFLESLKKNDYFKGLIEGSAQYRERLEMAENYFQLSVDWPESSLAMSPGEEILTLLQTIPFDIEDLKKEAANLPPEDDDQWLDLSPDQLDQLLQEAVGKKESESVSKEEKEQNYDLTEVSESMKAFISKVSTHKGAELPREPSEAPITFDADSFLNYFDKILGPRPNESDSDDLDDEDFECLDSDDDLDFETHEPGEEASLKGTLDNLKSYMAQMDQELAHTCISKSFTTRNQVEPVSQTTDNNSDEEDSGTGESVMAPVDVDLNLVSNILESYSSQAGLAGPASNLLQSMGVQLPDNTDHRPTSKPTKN
UniProt Q96FJ2, whole entry, looked up: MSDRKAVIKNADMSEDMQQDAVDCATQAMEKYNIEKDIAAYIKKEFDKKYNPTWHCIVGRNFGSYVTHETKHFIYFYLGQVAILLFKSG
UniProt Q8TEA8: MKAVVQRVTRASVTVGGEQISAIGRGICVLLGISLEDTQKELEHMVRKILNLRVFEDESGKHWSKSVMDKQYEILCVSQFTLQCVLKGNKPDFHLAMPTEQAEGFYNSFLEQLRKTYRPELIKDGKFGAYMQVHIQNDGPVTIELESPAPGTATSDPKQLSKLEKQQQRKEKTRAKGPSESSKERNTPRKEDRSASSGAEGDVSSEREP
UniProt Q9Y295: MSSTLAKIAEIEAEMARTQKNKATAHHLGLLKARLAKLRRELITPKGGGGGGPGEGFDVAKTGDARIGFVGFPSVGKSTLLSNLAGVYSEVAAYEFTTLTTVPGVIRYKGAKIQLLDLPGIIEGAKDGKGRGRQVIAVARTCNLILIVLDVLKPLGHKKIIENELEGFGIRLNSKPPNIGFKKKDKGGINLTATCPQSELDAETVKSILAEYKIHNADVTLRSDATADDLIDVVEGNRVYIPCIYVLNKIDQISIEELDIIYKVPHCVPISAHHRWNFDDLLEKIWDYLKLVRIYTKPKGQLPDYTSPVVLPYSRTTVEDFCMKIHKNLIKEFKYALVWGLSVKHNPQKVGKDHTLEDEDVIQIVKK
UniProt P42126: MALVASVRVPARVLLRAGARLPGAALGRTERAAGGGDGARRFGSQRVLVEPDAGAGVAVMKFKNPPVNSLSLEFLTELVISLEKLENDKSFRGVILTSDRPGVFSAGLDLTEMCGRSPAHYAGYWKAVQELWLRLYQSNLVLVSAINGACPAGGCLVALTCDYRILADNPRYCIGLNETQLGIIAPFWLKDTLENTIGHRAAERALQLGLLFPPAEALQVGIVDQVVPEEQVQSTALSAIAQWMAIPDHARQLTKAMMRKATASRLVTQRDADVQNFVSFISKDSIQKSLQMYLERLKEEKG
UniProt Q9UDY4: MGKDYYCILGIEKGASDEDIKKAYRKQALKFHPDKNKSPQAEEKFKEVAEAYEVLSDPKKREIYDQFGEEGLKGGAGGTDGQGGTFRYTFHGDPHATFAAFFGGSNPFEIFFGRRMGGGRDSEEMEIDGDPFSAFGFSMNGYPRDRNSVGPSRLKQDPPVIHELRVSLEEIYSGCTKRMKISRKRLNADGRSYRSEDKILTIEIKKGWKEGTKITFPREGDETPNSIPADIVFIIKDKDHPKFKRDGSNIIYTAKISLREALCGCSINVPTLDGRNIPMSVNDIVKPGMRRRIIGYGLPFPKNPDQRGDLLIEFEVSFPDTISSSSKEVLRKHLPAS
UniProt Q8WXX5: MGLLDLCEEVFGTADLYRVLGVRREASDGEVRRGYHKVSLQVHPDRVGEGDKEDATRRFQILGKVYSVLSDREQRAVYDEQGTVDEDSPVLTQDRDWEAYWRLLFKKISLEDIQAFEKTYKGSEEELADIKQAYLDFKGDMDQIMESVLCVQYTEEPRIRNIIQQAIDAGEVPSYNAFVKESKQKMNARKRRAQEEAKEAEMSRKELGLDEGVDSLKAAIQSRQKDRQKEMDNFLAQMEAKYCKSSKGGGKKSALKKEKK
UniProt Q8TBM8: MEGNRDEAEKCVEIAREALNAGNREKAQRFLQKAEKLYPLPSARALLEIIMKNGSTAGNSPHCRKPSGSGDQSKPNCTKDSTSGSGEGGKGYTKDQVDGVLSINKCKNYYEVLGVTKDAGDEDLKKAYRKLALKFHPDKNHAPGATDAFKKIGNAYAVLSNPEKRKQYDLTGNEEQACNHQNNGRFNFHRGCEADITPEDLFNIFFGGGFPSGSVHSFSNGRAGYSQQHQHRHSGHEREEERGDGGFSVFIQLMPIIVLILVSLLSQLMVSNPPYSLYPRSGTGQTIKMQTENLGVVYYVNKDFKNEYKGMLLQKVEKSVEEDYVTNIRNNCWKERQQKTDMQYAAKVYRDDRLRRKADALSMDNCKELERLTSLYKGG
UniProt Q7L8W6: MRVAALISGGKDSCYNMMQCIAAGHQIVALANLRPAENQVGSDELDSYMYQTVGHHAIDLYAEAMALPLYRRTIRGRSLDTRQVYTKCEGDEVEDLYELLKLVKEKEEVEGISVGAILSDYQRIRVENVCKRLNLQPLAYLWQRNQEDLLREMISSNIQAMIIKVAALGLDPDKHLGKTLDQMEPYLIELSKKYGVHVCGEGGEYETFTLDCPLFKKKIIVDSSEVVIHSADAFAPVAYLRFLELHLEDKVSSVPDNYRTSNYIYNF
UniProt Q13217: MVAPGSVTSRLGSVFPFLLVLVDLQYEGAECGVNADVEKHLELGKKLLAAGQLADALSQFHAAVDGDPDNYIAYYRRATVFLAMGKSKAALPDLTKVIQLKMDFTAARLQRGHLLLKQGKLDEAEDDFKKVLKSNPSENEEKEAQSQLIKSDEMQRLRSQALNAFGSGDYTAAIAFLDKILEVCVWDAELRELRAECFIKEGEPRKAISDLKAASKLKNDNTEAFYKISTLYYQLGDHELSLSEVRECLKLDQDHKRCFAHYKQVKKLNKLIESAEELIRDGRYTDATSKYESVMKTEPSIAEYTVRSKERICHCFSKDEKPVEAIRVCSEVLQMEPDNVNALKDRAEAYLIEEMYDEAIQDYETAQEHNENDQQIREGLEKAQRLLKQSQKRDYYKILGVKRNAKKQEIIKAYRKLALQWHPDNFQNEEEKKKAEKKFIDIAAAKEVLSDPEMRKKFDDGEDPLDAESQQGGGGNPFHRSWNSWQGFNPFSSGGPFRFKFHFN
UniProt Q9C005, whole entry, looked up: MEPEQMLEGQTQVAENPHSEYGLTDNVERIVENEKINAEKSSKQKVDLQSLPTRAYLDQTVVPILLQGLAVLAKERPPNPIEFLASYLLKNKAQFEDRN

compound: c1cn2cc(-c3ccc4cn[nH]c4c3)nc(Nc3ccc(N4CCOCC4)cc3)c2n1 [entospletinib]; experiment: log2 fold change, soluble protein after heating vs DMSO (PISA); higher = thermal stabilisation; K562 cells, 10 uM, 30 min; active = over 0.2 and 3.5 SD of the protein, either way, in both replicates (recomputed)
Procedure, shortened: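 Soluble protein was quantified by TMTpro 16plex LC-MS/MS after channel sums were equalised. It was obtained as the supernatant after 21,000xg for 90 min from pooled aliquots of K562 cells (2×10^6 cells/mL, 10 μM compound, 30 min) heated for 3 min across 48°C-58°C and extracted in PBS with 0.5% NP-40 at 4°C. Thermal stability values are relative to control samples and come from duplicates. They are given as log2 fold changes.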

log2 fold change, inactive:
DVL2 (UniProt O14641) 0.038
DNAJC5 (UniProt Q9H3Z4) 0.018
DPH3 (UniProt Q96FX2) 0.028
DNLZ (UniProt Q5SXM8) -0.029
DNAJC17 (UniProt Q9NVM6) -0.037
DNAJC8 (UniProt O75937) -0.043
ECHDC1 (UniProt Q9NTX5) 0.008
EAF1 (UniProt Q96JC9) -0.074
ECI2 (UniProt O75521) 0.008
DRG2 (UniProt P55039) -0.002
ECM1 isoform 4 (UniProt Q16610) -0.059
DPAGT1 (UniProt Q9H3H5) 0.031
DYSF isoform 13 (UniProt O75923) 0.155
DOCK1 (UniProt Q14185) -0.086
DNMT1 isoform 2 (UniProt P26358) -0.006
ECD isoform 3 (UniProt O95905) 0.052
DYNLL2 (UniProt Q96FJ2) 0.052
DTD1 (UniProt Q8TEA8) -0.01
DRG1 (UniProt Q9Y295) 0.042
ECI1 (UniProt P42126) 0.025
DNAJB4 (UniProt Q9UDY4) -0.036
DNAJC9 (UniProt Q8WXX5) -0.016
DOCK7 (UniProt Q96N67) -0.066
DNAJB14 (UniProt Q8TBM8) 0.047
EDARADD (UniProt Q8WWZ3) -0.09
DPF2 (UniProt Q92785) 0.014
DPH6 (UniProt Q7L8W6) -0.04
DOCK9 isoform 4 (UniProt Q9BZ29) -0.015
DPP3 (UniProt Q9NY33) -0.015
DNAJA3 (UniProt Q96EY1) 0.16
DOK1 (UniProt Q99704) -0.02
DOP1B (UniProt Q9Y3R5) -0.233
DNAJC3 (UniProt Q13217) -0.015
DPY30 (UniProt Q9C005) 0.002

2 records picked at random from the list so far, as already listed:
log2 fold change, inactive:
DNAJC8 (UniProt O75937) -0.043
DYSF isoform 13 (UniProt O75923) 0.155
